Measurements reported in PubChem BioAssay AID504804 (Drosophila RNAi Screening Center, 2011)

Assay: 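Fly genes whose loss lessens doxorubicin-driven cell death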 (primary screen)
Cells: Drosophila Kc cells
Knock-down reagent: long dsRNA against Drosophila genes, 0.5 µg dsRNA per well
Time to read-out: 96 h (48 h knock-down, then 48 h drug)
Conditions: doxorubicin 5 µg/ml for 48 h, added 48 h after dsRNA
Read-out: 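Luminescent ATP counts per replicate, not normalised, reflecting viable cells after 48 h dsRNA knock-down followed by 48 h of 5 µg/ml doxorubicin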
Scale: raw ATP luminescence: higher = more viable cells, protection from doxorubicin
Call rule: 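Active when both duplicate wells lie at least 2 SD above the plate mean and protection is confirmed by rescreening and independent dsRNAs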
In all, the deposit lists about 19,000 reagents; below is a random part of those with a known target gene and a result. Of all reagents, 47 (0.25%) got an active call. 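Signals are raw, not normalised; exact z-scores behind calls not deposited; actives needed confirmation, so some wells reaching 2 SD are inactive.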 Entries without a mark were called inactive. Names joined by + are all predicted targets of the reagent.

| gene | dsRNA | raw ATP luminescence, replicate 1 | raw ATP luminescence, replicate 2 |
| --- | --- | --- | --- |
| CG15756 | DRSC19721 | 3.54e5 | 3.64e5 |
| Pi3K59F (Phosphatidylinositol 3-kinase 59F) | DRSC04640 | 56810 | 67257 |
| Jhbp6 (Juvenile hormone binding protein 6) | DRSC11714 | 58220 | 47650 |
| CG45105 | DRSC15002 | 33010 | 27750 |
| CG45105 | DRSC15833 | 54770 | 53620 |
| Tsf1 (Transferrin 1) | DRSC20296 | 3.23e5 | 3.00e5 |
| sog (short gastrulation) | DRSC20379 | 2.93e5 | 2.20e5 |
| ninaB (neither inactivation nor afterpotential B) | DRSC16807 | 84610 | 85200 |
| CG11828 | DRSC14394 | 61810 | 45690 |
| CG6231 | DRSC15997 | 64220 | 89740 |
| CG7806 | DRSC03071 | 99133 | 63583 |
| CG13559 | DRSC04197 | 47140 | 48370 |
| CG17121 | DRSC15176 | 83120 | 87000 |
| eIF4EHP | DRSC13653 | 2.02e5 | 1.86e5 |
| eIF4EHP | DRSC14265 | 38093 | 43317 |
| CR18275 + CG13373 | DRSC17900 | 38430 | 52010 |
| Scsalpha1 (Succinyl-coenzyme A synthetase alpha subunit 1) | DRSC08698 | 56543 | 45977 |
| CG5885 | DRSC02910 | 81817 | 55093 |
| Acp65Aa (Adult cuticle protein 65Aa) | DRSC09663 | 78693 | 79757 |
| Trs23 (TRAPP subunit 23) | DRSC03190 | 58167 | 79407 |
| SP1029 | DRSC16848 | 38980 | 46110 |
| NimB4 (Nimrod B4) | DRSC01884 | 1.03e5 | 73660 |
| Kdm5 (Lysine demethylase 5) | DRSC03133 | 79123 | 73360 |
| CG4461 | DRSC10423 | 82630 | 69327 |
| trv (trivet) | DRSC13846 | 2.09e5 | 2.06e5 |
| trv (trivet) | DRSC14559 | 44690 | 32240 |
| trv (trivet) | DRSC14560 | 53530 | 38200 |
| trv (trivet) | DRSC14561 | 54120 | 44270 |
| Hasp (Hig-anchoring scaffold protein) | DRSC02022 | 89223 | 55693 |
| CG7695 | DRSC16289 | 59250 | 52540 |
| CG12159 | DRSC06114 | 33057 | 82997 |
| CG34032 (retired record) | DRSC09225 | 70507 | 93143 |
| SLC22A (SLC22A family member) | DRSC11826 | 65457 | 58987 |
| SLC22A (SLC22A family member) | DRSC11827 | 70750 | 62010 |
| CG3626 | DRSC18318 | 45650 | 46790 |
| CG33288 | DRSC11484 | 55950 | 56620 |
| CG7369 | DRSC11822 | 48477 | 29033 |
| CG31862 | DRSC01245 | 2.69e5 | 2.30e5 |
| qkr58E-3 (quaking related 58E-3) | DRSC04711 | 62070 | 65967 |
| heph (hephaestus) | DRSC14082 | 3.15e5 | 3.20e5 |
| heph (hephaestus) | DRSC14085 | 3.25e5 | 2.76e5 |
| heph (hephaestus) | DRSC15436 | 27340 | 33320 |
| heph (hephaestus) | DRSC16783 | 47710 | 62240 |
| CG11693 | DRSC14353 | 34633 | 28890 |
| TppII (Tripeptidyl-peptidase II) | DRSC07565 | 71617 | 55593 |
| Egfrap (EGFR adaptor protein) | DRSC09963 | 70293 | 74230 |
| Egfrap (EGFR adaptor protein) | DRSC09964 | 68677 | 87077 |
| Usp10 (Ubiquitin specific protease 10) | DRSC08282 | 60353 | 64497 |
| dnd (dead end) | DRSC16064 | 61140 | 78450 |

Continued; the last 11 above are carried over.
| gene | dsRNA | raw ATP luminescence, replicate 1 | raw ATP luminescence, replicate 2 |
| --- | --- | --- | --- |
| qkr58E-3 (quaking related 58E-3) | DRSC04711 | 62070 | 65967 |
| heph (hephaestus) | DRSC14082 | 3.15e5 | 3.20e5 |
| heph (hephaestus) | DRSC14085 | 3.25e5 | 2.76e5 |
| heph (hephaestus) | DRSC15436 | 27340 | 33320 |
| heph (hephaestus) | DRSC16783 | 47710 | 62240 |
| CG11693 | DRSC14353 | 34633 | 28890 |
| TppII (Tripeptidyl-peptidase II) | DRSC07565 | 71617 | 55593 |
| Egfrap (EGFR adaptor protein) | DRSC09963 | 70293 | 74230 |
| Egfrap (EGFR adaptor protein) | DRSC09964 | 68677 | 87077 |
| Usp10 (Ubiquitin specific protease 10) | DRSC08282 | 60353 | 64497 |
| dnd (dead end) | DRSC16064 | 61140 | 78450 |
| CG18284 | DRSC02661 | 1.39e5 | 82050 |
| CG18284 | DRSC20756 | 2.51e5 | 2.54e5 |
| RagC-D (Ras-related GTP binding C/D) | DRSC07239 | 86087 | 49647 |
| Ercc1 | DRSC07424 | 60690 | 56520 |
| Nrx-1 (Neurexin 1) | DRSC16184 | 30277 | 37547 |
| nwk (nervous wreck) | DRSC10442 | 58983 | 62107 |
| CG31278 | DRSC16051 | 61247 | 51417 |
| Rrp46 | DRSC15537 | 68990 | 60997 |
| CG13108 | DRSC02206 | 41123 | 77553 |
| hoe1 (hoepel1) | DRSC00265 | 1.16e5 | 1.06e5 |
| hoe1 (hoepel1) | DRSC00333 | 30773 | 37510 |
| hoe1 (hoepel1) | DRSC00353 | 31377 | 42677 |
| CG10984 | DRSC09817 | 35107 | 32497 |
| CG7692 | DRSC10902 | 56237 | 45580 |
| Obsc (Obscurin) | DRSC04301 | 1.96e5 | 2.15e5 |
| Obsc (Obscurin) | DRSC04302 | 75577 | 65567 |
| Obsc (Obscurin) | DRSC04303 | 57947 | 85423 |
| Obsc (Obscurin) | DRSC04430 | 63293 | 59117 |
| CG32445 | DRSC11678 | 60897 | 62920 |
| CG10064 | DRSC09689 | 74263 | 84370 |
| Ir75a (Ionotropic receptor 75a) | DRSC10188 | 97517 | 56460 |
| Osi3 (Osiris 3) | DRSC12175 | 69747 | 54823 |
| Paf-AHalpha (Platelet-activating factor acetylhydrolase alpha) | DRSC20267 | 3.65e5 | 3.11e5 |
| beat-IV (beaten path IV) | DRSC14195 | 35427 | 23447 |
| beat-IV (beaten path IV) | DRSC14673 | 66400 | 74540 |
| ine (inebriated) | DRSC00822 | 96443 | 60983 |
| Idh3g | DRSC15699 | 53550 | 45120 |
| beta4GalT7 (beta-4-galactosyltransferase 7) | DRSC14385 | 57410 | 66840 |
| CG33655 | DRSC03858 | 64133 | 63813 |
| CG33342 (HDC15381) | DRSC13662 | 1.94e5 | 2.27e5 |
| CG14195 | DRSC19550 | 3.66e5 | 3.14e5 |
| CG34109 | DRSC02169 | 46510 | 82980 |
| CG34109 | DRSC02224 | 40863 | 58357 |
| CG34109 | DRSC02225 | 32603 | 64937 |
| ND1 (retired record) | DRSC21273 | 2.82e5 | 2.25e5 |
